Measured values as given in the supplement of paper PMC10849652.
The other results are listed elsewhere or left out.

The chains behind the UniProt entries cited, without tags or fusion partners. Where a name states a change or a piece, a line headed by the entry shows the natural chain unless it says otherwise.
UniProt Q9P2W1: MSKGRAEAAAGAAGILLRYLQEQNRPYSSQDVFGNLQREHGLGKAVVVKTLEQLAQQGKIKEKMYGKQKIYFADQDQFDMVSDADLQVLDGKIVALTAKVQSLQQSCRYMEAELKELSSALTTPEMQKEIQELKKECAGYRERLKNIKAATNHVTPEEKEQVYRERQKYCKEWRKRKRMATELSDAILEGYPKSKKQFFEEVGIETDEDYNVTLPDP
UniProt Q9Y606: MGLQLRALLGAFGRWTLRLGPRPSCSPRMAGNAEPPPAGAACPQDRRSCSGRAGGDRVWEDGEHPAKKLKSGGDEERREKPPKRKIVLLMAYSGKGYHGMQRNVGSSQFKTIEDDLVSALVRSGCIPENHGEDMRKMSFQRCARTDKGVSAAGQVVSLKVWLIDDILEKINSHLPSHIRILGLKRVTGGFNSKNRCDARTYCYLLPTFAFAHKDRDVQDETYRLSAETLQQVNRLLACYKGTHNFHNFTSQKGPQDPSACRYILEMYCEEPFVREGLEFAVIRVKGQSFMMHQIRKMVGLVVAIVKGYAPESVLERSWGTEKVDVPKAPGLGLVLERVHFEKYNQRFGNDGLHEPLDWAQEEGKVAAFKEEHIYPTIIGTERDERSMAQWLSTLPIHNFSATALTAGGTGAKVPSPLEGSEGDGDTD
UniProt P53801: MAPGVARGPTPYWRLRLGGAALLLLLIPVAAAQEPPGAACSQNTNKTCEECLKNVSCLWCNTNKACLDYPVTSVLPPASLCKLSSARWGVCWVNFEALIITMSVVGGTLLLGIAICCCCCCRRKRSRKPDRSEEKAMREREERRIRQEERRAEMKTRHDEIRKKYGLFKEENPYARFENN
UniProt Q05397, whole entry, looked up: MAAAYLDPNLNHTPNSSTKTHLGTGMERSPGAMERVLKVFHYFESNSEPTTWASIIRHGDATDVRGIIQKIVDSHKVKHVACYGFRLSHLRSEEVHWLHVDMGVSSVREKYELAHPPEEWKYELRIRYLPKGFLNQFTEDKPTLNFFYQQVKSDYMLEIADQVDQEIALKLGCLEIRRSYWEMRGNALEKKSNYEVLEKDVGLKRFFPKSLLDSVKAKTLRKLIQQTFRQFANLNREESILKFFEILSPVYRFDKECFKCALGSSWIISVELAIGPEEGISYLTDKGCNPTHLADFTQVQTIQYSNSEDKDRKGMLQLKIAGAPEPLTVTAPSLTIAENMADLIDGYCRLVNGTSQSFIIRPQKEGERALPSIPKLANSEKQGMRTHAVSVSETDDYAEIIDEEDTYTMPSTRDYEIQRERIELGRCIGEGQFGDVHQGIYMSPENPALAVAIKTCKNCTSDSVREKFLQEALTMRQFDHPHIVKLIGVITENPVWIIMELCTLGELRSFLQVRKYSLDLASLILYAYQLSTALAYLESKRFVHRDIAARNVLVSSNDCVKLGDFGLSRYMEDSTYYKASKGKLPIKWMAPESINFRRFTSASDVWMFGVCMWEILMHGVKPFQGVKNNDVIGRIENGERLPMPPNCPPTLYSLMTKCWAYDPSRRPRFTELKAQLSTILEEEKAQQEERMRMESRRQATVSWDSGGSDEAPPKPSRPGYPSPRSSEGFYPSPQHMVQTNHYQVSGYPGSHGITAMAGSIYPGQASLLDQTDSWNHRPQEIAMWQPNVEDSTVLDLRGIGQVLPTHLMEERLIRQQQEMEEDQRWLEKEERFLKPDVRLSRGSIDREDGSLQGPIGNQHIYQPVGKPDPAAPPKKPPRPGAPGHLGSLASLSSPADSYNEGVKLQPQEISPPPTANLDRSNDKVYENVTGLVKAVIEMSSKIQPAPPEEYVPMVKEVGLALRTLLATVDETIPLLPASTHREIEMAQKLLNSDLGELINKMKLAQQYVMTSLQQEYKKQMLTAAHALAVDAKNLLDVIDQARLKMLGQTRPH
UniProt P20962: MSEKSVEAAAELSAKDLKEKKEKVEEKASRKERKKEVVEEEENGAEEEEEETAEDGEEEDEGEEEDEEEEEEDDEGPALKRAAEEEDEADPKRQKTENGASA
UniProt P28065: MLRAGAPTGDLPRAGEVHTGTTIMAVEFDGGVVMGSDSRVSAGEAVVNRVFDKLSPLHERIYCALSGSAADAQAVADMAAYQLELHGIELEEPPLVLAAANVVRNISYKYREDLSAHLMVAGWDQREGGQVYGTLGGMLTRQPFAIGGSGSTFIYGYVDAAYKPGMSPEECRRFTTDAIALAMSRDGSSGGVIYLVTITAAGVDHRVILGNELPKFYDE
UniProt Q5JSZ5: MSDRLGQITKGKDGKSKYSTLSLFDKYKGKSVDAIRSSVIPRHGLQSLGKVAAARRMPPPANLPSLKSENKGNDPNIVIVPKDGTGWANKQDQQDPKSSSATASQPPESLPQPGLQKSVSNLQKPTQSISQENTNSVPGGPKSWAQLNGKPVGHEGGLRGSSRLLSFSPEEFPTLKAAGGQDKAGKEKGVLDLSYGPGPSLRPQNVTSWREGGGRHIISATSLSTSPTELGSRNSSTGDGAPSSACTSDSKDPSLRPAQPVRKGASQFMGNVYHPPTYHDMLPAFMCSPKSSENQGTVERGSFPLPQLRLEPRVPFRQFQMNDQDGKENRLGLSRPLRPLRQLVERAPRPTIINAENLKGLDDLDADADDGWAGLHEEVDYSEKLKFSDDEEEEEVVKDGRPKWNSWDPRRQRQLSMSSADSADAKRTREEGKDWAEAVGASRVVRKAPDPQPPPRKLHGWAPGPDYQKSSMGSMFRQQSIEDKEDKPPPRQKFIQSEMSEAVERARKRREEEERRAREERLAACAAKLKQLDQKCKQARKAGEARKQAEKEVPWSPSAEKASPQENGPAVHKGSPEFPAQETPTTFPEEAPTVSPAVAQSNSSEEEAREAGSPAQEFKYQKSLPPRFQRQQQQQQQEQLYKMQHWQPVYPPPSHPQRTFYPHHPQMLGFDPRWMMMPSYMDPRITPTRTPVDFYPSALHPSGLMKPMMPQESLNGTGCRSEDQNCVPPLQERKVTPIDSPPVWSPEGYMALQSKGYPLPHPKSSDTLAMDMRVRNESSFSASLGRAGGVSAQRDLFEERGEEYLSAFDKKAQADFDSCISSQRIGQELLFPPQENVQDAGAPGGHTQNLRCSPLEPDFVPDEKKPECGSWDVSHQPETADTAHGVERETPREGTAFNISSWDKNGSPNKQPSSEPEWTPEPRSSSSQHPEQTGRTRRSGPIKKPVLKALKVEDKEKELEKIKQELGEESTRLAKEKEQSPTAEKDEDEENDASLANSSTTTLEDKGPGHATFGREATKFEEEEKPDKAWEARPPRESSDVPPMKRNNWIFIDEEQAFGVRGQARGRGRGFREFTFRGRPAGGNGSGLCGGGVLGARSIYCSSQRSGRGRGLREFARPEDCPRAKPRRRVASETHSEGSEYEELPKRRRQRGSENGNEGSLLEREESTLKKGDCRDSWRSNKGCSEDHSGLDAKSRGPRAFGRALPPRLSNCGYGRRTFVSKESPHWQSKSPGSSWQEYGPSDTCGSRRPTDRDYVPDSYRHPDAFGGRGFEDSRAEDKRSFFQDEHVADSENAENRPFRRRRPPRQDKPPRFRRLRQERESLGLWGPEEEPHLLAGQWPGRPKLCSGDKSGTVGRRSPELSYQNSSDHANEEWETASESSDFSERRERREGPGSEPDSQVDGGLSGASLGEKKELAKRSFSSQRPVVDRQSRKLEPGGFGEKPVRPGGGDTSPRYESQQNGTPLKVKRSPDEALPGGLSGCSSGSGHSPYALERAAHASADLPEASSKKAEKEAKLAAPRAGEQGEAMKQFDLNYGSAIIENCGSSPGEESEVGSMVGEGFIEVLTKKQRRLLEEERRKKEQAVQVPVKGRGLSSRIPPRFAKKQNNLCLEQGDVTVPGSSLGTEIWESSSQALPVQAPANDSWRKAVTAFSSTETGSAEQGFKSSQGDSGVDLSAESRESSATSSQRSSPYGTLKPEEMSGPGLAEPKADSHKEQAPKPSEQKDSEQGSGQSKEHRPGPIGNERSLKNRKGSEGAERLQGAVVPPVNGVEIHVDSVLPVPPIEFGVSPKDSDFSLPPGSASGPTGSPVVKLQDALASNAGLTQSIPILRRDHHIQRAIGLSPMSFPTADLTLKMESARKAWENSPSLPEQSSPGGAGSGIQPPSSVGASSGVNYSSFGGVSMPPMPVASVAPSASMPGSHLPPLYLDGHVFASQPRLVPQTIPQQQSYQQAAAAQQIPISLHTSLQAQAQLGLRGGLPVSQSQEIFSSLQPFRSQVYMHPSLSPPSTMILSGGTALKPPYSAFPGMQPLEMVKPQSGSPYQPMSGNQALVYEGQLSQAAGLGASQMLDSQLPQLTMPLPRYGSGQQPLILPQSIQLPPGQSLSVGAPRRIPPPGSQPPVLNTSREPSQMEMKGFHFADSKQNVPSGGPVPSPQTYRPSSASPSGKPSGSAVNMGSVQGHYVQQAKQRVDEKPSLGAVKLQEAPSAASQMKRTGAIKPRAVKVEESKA
UniProt Q9H3S7: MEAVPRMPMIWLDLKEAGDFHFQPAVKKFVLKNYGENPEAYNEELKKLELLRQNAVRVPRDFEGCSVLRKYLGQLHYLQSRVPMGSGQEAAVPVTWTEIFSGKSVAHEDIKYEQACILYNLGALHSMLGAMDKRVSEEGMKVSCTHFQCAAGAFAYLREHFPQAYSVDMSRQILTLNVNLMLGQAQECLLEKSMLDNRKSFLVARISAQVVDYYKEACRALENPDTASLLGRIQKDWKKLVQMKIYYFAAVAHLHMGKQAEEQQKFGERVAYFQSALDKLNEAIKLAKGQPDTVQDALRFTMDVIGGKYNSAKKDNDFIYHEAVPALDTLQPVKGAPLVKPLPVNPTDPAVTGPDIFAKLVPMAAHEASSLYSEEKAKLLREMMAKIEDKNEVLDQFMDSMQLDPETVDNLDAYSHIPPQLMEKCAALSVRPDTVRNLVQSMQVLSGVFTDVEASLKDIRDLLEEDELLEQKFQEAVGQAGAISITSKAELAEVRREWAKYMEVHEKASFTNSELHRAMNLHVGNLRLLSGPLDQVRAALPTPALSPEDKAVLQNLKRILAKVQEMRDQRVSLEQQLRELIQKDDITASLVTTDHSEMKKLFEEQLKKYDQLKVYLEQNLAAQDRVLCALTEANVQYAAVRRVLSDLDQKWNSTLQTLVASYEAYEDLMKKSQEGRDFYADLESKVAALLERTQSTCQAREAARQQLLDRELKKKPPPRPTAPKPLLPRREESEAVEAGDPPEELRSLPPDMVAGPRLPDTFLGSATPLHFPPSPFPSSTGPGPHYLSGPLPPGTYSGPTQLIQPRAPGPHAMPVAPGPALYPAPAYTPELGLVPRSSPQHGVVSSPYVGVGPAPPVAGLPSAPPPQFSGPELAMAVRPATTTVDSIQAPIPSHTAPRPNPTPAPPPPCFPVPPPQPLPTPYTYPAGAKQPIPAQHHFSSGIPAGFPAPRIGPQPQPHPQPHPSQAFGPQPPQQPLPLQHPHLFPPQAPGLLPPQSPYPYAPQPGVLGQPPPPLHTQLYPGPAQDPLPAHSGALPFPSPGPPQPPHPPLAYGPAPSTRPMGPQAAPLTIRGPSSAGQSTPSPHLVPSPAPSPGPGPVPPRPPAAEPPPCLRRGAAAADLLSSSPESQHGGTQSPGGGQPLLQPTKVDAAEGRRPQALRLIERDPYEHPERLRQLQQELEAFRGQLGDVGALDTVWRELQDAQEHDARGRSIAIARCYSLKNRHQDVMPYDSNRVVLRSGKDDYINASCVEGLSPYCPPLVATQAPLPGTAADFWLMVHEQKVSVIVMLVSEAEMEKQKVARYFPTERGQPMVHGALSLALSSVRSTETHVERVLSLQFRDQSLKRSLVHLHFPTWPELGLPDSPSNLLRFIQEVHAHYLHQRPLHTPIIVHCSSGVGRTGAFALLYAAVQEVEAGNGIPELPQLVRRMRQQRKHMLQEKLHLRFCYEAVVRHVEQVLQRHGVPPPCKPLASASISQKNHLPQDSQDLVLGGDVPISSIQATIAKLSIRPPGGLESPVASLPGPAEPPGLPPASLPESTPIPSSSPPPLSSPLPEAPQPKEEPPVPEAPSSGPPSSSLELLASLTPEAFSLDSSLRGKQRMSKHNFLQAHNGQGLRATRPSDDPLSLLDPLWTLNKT
UniProt P25786: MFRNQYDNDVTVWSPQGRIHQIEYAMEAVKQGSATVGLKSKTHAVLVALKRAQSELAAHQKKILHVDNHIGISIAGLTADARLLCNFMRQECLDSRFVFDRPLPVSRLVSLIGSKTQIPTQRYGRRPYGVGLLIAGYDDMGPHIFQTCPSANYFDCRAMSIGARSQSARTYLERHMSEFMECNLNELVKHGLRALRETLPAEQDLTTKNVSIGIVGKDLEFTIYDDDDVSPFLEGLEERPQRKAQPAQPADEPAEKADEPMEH
UniProt P25788: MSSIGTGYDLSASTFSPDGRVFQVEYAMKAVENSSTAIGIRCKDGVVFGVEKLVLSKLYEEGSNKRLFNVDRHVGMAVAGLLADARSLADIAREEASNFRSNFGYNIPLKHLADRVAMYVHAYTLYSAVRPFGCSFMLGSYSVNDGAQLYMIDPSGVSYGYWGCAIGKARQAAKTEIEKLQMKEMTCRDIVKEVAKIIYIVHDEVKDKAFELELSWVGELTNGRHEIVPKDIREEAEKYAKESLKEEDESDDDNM

Tests used:
Test in all cases: log2 fold change, soluble protein after heating vs DMSO (PISA); higher = thermal stabilisation; K562 lysate, 10 uM; active = over 0.2 and 3.5 SD of the protein, either way, in both replicates (recomputed)
erlotinib = compound: C#Cc1cccc(Nc2ncnc3cc(OCCOC)c(OCCOC)cc23)c1 [erlotinib]
How it was run: (§1)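 Following dounce homogenisation of K562 pellets in PBS pH 7.4 with 1 mM MgCl2, crude extract at 1 mg/mL protein was incubated for 30 min with 10 μM compound. Aliquots were then heated for 3 min over 48°C-58°C and pooled, NP-40 was added to 0.5% at 4°C, and soluble protein was recovered as the supernatant at 21,000xg for 90 min. Channel-sum-equalised TMTpro 16plex LC-MS/MS quantified this protein. Each value, from duplicates, is a log-two fold change in thermal stability relative to solvent controls.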

[1] = compound: C/C(=N\NC(=O)C1=CC(=CC=C1)S(=O)(=O)N2CCOCC2)/C3=C(C=CC(=C3)Cl)O
How it was run: as §1

[2] = compound: C1=CC(=CC=C1C2=NC3=C(N2)C=C(C=C3)C(=O)N)OC4=CC=C(C=C4)Cl
How it was run: as §1

[3] = compound: C1=CC2=C(C=CC(=C2)/C=C\3/C(=O)NC(=NCC4=CC=CS4)S3)N=C1
How it was run: as §1

[4] = compound: C1=CC2=NC=CN=C2C=C1/C=C/3\C(=O)NC(=O)S3
How it was run: as §1

[5] = compound: C1=CC=C(C=C1)C2=NC(=C(N2)C3=CC=NC=C3)C4=CC(=C(C=C4)Cl)O
How it was run: as §1

[6] = compound: C1=CC=C2C(=C1)C3=NNC4=CC=CC(=C43)C2=O
How it was run: as §1

[7] = compound: C1CCN(C1)C(=O)NC2=CC=CC(=C2)NC3=NC=C(C(=N3)NCCC4=CN=CN4)Br
How it was run: as §1

[8] = compound: C1CN(CCC1(CC2=CC=C(C=C2)Cl)N)C3=NC=NC4=C3C=CN4
How it was run: as §1

IRAK-1-4 Inhibitor I = compound: C1COCCN1CCN2C3=CC=CC=C3N=C2NC(=O)C4=CC(=CC=C4)[N+](=O)[O-] [IRAK-1-4 Inhibitor I]
How it was run: as §1

Measured: log2 fold change

PSMC6 (UniProt P62333)
inactive: erlotinib -0.012 | [1] 0.013 | [2] -0.001 | [3] -0.004 | [4] -0.026 | [5] 0.011 | [6] -0.029 | [7] 0.017 | [8] 0.008 | IRAK-1-4 Inhibitor I -0.006

PSMC3IP (UniProt Q9P2W1)
inactive: erlotinib -0.008 | [1] 0.005 | [2] -0.006 | [3] -0.056 | [4] 0.03 | [5] 0.011 | [6] 0.019 | [7] -0.01 | [8] 0.014 | IRAK-1-4 Inhibitor I -0.004

PSAP isoform 3 (UniProt P07602)
inactive: erlotinib -0.022 | [1] 0.044 | [2] -0.001 | [3] 0.013 | [4] 0.003 | [5] 0.003 | [6] -0.004 | [7] 0.033 | [8] 0.027 | IRAK-1-4 Inhibitor I -0.015

PUS1 (UniProt Q9Y606)
inactive: erlotinib 0.033 | [1] -0.174 | [2] 0.007 | [3] 0.01 | [4] 0.024 | [5] 0.005 | [6] -0.06 | [7] 0.016 | [8] -0.021 | IRAK-1-4 Inhibitor I 0.004

PSMD9 (UniProt O00233)
inactive: erlotinib -0.014 | [1] 0.011 | [2] 0.04 | [3] -0.006 | [4] 0.012 | [5] -0.004 | [6] -0.036 | [7] 0.02 | [8] 0.031 | IRAK-1-4 Inhibitor I -0.012

PTTG1IP (UniProt P53801)
inactive: erlotinib -0.12 | [1] 0.092 | [2] -0.032 | [3] -0.016 | [4] -0.025 | [5] 0.188 | [6] -0.095 | [7] 0.039 | [8] -0.049 | IRAK-1-4 Inhibitor I -0.088

PRPF8 (UniProt Q6P2Q9)
inactive: erlotinib 0.01 | [1] 0.02 | [2] -0.017 | [3] 0.005 | [4] -0.01 | [5] 0.007 | [6] -0.018 | [7] 0.008 | [8] 0.006 | IRAK-1-4 Inhibitor I -0.011

PTPA isoform 2 (UniProt Q15257)
inactive: erlotinib 0.005 | [1] 0.018 | [2] -0.011 | [3] -0.018 | [4] 0.003 | [5] -0.017 | [6] -0.034 | [7] 0.002 | [8] 0.018 | IRAK-1-4 Inhibitor I 0.011

PTK2 (UniProt Q05397)
inactive: erlotinib -0.018 | [1] -0.009 | [2] 0.045 | [3] -0.031 | [4] -0.045 | [5] -0.02 | [6] 0.271 | [7] 0.32 | [8] -0.045 | IRAK-1-4 Inhibitor I 0.22

PTMS (UniProt P20962)
inactive: erlotinib -0.033 | [1] 0.01 | [2] 0.019 | [3] -0.01 | [4] -0.002 | [5] 0.034 | [6] 0.024 | [7] -0.026 | [8] 0 | IRAK-1-4 Inhibitor I 0.008

PTGES2 (UniProt Q9H7Z7)
inactive: erlotinib 0.008 | [1] 0.056 | [2] -0.133 | [3] 0.066 | [4] -0.054 | [5] 0.174 | [6] 0.162 | [7] 0.028 | [8] -0.023 | IRAK-1-4 Inhibitor I 0.161

PUM3 (UniProt Q15397)
inactive: erlotinib 0.012 | [1] -0.013 | [2] 0.012 | [3] 0.049 | [4] -0.021 | [5] 0 | [6] 0.013 | [7] 0.074 | [8] 0.05 | IRAK-1-4 Inhibitor I 0.071

PSMB9 (UniProt P28065)
inactive: erlotinib 0.02 | [1] -0.112 | [2] 0.008 | [3] -0.062 | [4] -0.08 | [5] -0.061 | [6] 0.033 | [7] -0.084 | [8] 0.084 | IRAK-1-4 Inhibitor I -0.048

PTPN2 (UniProt P17706)
inactive: erlotinib 0.028 | [1] 0.119 | [2] -0.005 | [3] 0.006 | [4] 0.019 | [5] -0.045 | [6] -0.033 | [7] 0 | [8] 0.046 | IRAK-1-4 Inhibitor I -0.017

PSPC1 (UniProt Q8WXF1)
inactive: erlotinib -0.018 | [1] -0.053 | [2] 0.019 | [3] 0.017 | [4] -0.004 | [5] -0.001 | [6] 0.01 | [7] -0.016 | [8] -0.028 | IRAK-1-4 Inhibitor I 0

PRRC2B (UniProt Q5JSZ5)
inactive: erlotinib -0.034 | [1] 0.005 | [2] 0.054 | [3] -0.027 | [4] -0.05 | [5] -0.019 | [6] -0.059 | [7] -0.075 | [8] -0.012 | IRAK-1-4 Inhibitor I 0.054

PTP4A1 (UniProt Q93096)
inactive: erlotinib -0.005 | [1] 0.01 | [2] 0.014 | [3] -0.001 | [4] -0.013 | [5] -0.022 | [6] -0.086 | [7] 0.05 | [8] -0.066 | IRAK-1-4 Inhibitor I -0.014

PSMD5 (UniProt Q16401)
inactive: erlotinib 0.013 | [1] -0.009 | [2] -0.018 | [3] -0.003 | [4] 0.023 | [5] -0.001 | [6] -0.008 | [7] 0.005 | [8] 0.007 | IRAK-1-4 Inhibitor I 0.018

PUS7L (UniProt Q9H0K6)
inactive: erlotinib 0.008 | [1] 0.017 | [2] 0.006 | [3] 0.006 | [4] -0.034 | [5] 0.007 | [6] -0.013 | [7] 0.011 | [8] -0.008 | IRAK-1-4 Inhibitor I 0.026

2 records picked at random from the list so far, as already listed:
PRRC2B (UniProt Q5JSZ5)
inactive: erlotinib -0.034 | [1] 0.005 | [2] 0.054 | [3] -0.027 | [4] -0.05 | [5] -0.019 | [6] -0.059 | [7] -0.075 | [8] -0.012 | IRAK-1-4 Inhibitor I 0.054

PSPC1 (UniProt Q8WXF1)
inactive: erlotinib -0.018 | [1] -0.053 | [2] 0.019 | [3] 0.017 | [4] -0.004 | [5] -0.001 | [6] 0.01 | [7] -0.016 | [8] -0.028 | IRAK-1-4 Inhibitor I 0

The results go on.

PTPN23 (UniProt Q9H3S7)
inactive: erlotinib 0.017 | [1] -0.029 | [2] 0.016 | [3] -0.01 | [4] -0.023 | [5] 0.008 | [6] -0.028 | [7] -0.013 | [8] -0.003 | IRAK-1-4 Inhibitor I -0.004

PTPN1 (UniProt P18031)
inactive: erlotinib -0.007 | [1] 0.065 | [2] -0.015 | [3] 0.025 | [4] -0.011 | [5] -0.005 | [6] -0.019 | [7] 0.027 | [8] -0.017 | IRAK-1-4 Inhibitor I 0.024

PURA (UniProt Q00577)
inactive: erlotinib -0.042 | [1] -0.134 | [2] 0.048 | [3] -0.029 | [4] -0.022 | [5] 0.009 | [6] 0.079 | [7] -0.015 | [8] -0.005 | IRAK-1-4 Inhibitor I -0.009

PSMD2 (UniProt Q13200)
inactive: erlotinib 0.001 | [1] 0.007 | [2] 0.004 | [3] -0.01 | [4] -0.029 | [5] 0.007 | [6] -0.016 | [7] 0.003 | [8] 0.011 | IRAK-1-4 Inhibitor I -0.001

PSEN1 (UniProt P49768)
inactive: erlotinib 0.024 | [1] 0.001 | [2] -0.109 | [3] 0.053 | [4] 0.043 | [5] -0.06 | [6] 0.003 | [7] -0.026 | [8] 0.122 | IRAK-1-4 Inhibitor I -0.081

PUM2 (UniProt Q8TB72)
inactive: erlotinib -0.069 | [1] -0.089 | [2] 0.119 | [3] -0.1 | [4] -0.052 | [5] -0.05 | [6] -0.246 | [7] -0.059 | [8] -0.051 | IRAK-1-4 Inhibitor I -0.167

PSMA1 isoform 2 (UniProt P25786)
inactive: erlotinib -0.008 | [1] -0.109 | [2] 0.029 | [3] 0.001 | [4] -0.013 | [5] 0.009 | [6] 0.031 | [7] 0.002 | [8] 0.002 | IRAK-1-4 Inhibitor I 0.019

PSMA3 (UniProt P25788)
inactive: erlotinib -0.03 | [1] 0.032 | [2] -0.016 | [3] 0.011 | [4] -0.011 | [5] 0.002 | [6] 0.032 | [7] 0.02 | [8] -0.029 | IRAK-1-4 Inhibitor I -0.025
